Reference: paper PMC10992996
Where a chain is given by its changes, count along the chain named. Results are given in words; binding and its absence hold for the method and conditions named. In cells and extracts the contact can be indirect. Some results given as binding are weak or reduced against the parent protein; the word gives no strength. Tags and fused reporters may be left off the sequences shown.

By UniProt entry, the sequences of proteins in these tests, tags left out. Residues count along the entry.
UniProt Q5IJ48, residues 29-1285: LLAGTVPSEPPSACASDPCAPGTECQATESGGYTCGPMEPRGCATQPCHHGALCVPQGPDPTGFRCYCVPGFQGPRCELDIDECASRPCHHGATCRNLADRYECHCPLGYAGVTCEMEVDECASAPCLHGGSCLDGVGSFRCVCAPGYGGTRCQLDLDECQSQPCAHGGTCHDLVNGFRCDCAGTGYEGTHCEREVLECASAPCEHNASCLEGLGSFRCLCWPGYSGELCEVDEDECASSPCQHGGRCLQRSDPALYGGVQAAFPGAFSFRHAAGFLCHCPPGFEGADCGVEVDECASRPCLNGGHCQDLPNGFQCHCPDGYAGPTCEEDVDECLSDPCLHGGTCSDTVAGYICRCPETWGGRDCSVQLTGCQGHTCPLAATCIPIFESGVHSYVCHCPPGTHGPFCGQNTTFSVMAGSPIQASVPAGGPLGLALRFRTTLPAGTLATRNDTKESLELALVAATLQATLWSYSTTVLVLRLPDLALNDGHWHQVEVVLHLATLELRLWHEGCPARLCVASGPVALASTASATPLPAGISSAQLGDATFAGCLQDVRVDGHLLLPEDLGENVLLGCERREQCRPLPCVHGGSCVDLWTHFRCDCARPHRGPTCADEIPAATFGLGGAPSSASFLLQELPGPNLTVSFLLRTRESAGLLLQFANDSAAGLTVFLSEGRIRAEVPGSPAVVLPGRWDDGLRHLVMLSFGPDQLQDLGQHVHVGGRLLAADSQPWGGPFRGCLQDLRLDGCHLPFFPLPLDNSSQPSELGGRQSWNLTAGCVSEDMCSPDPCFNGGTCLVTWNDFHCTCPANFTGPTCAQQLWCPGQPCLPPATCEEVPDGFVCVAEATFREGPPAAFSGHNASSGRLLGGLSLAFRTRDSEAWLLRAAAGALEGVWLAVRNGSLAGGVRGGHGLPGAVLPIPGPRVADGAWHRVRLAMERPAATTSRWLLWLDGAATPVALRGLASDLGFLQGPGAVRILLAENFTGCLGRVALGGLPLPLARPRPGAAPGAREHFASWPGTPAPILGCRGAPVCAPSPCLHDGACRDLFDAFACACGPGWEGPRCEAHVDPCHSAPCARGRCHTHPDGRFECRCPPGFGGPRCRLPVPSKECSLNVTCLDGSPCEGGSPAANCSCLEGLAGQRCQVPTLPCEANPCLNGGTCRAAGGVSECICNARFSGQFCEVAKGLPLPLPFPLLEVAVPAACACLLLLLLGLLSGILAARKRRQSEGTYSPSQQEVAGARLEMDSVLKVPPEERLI

How the values were obtained:
[1] = target: T1, CRB1-FLAG p.C681Y (human) (UniProt P82279); experiment: co-IP; HEK293T cells co-transfected pairwise with a FLAG and an HA construct, 48 h; lysis in TBS (30 mM Tris-HCl pH 7.4, 150 mM NaCl) with 0.5% Nonidet P40; FLAG-IP on ANTI-FLAG M2 Affinity Gel 60-90 min at 4°C, elution with FLAG peptide; Western blot with HA and FLAG antibodies; for mutants HA/FLAG signal in eluates relative to WT, three biological replicates
T1 sequence: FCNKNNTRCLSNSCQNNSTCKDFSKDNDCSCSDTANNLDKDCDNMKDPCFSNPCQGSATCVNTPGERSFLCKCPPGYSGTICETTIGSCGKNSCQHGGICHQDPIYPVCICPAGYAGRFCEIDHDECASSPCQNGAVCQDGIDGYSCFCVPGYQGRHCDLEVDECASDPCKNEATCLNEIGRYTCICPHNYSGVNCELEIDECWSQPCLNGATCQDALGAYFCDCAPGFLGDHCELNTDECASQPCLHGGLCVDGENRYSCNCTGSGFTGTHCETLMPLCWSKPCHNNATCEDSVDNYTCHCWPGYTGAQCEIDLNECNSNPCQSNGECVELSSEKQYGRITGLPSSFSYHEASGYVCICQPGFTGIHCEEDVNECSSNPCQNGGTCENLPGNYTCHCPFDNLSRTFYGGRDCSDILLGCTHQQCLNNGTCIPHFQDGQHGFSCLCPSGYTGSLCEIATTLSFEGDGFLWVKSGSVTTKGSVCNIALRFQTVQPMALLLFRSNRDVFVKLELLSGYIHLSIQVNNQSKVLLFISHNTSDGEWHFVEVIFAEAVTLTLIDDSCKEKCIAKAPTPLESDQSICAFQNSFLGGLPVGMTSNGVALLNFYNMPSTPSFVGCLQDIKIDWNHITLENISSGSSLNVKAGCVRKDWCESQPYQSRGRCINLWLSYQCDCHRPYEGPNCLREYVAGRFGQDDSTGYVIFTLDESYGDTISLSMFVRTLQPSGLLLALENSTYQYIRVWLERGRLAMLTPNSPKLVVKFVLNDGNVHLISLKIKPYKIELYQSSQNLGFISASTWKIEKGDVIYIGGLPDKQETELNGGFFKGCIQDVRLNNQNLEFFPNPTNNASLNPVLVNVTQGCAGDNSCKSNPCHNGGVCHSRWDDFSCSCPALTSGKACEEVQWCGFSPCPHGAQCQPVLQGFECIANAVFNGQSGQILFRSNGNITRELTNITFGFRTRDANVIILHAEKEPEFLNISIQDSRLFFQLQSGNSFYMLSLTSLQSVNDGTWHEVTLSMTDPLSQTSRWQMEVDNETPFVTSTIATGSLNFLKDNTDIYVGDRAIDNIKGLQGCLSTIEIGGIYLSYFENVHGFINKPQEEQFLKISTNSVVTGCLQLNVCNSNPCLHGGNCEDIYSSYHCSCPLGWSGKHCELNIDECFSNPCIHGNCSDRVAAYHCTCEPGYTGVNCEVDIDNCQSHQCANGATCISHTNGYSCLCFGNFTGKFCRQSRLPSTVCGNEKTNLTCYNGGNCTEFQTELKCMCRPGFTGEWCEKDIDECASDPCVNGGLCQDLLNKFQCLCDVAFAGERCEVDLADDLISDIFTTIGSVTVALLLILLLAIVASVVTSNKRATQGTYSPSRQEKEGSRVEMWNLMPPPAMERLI

[2] = target: T2, CRB1-FLAG p.C948Y (human) (UniProt P82279); experiment: as above
T2 sequence: T1 sequence with Y656C, C923Y

binding [1]: binds | binding [2]: binds
Substance: Human canonical CRB2 (Crumbs homolog 2) (from UniProt Q5IJ48-1 29-1285)
